Here are results for four sequences from paper PMC3585336.

Construct, isoform or probe ends are uncertain for at least one entry. Where cells or extracts were used, other partners may take part. No signal at the amounts used counts as a negative. Protein sequences can lack the tags named with them.

The target of the data set is T1, Znf202 (mouse (cDNA from C57Bl/6JIco liver)) (UniProt Q99PG9).
T1 sequence (looked up, limits assumed): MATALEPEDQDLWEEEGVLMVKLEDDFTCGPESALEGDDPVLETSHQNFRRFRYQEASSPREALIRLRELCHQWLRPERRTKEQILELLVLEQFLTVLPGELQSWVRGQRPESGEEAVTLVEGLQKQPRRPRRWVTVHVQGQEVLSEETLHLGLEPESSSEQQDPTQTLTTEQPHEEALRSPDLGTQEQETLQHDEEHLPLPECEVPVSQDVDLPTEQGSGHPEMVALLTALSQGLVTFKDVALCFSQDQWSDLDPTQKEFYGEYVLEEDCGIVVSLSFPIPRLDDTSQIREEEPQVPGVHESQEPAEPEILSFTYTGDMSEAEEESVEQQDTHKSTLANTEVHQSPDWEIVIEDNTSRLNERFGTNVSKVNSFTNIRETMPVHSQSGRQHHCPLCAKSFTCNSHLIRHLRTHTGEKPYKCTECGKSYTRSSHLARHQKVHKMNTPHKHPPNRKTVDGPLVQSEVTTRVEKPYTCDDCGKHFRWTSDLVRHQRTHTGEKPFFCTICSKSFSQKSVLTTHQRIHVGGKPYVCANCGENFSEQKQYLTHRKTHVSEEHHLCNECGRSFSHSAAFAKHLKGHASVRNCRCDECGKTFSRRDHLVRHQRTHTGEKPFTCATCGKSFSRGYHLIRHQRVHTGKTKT
The data set is described as follows: EMSA. The conditions noted are these: 5 mM MgCl2, 75 mM KCl, 1 mM DTT, 0.1 mM EDTA, 2 ug BSA, 2 ug poly(dI-dC), 0.1-0.6 ug whole cell extract, protein in a lysate after overexpression, label: 32P (T4 PNK). On the technique in general: Mobility shift assays separate free from complexed probe on a gel.

For “GTGGGGTGGGGGTGGGGGGTCC (double strand) [GnT consensus]”, the binding result (competed by 50-fold excess unlabeled GnT) is “binds”. As for “CCGGCGCAGCCATTAAGGAGG (double strand) [PHO consensus]”, the binding result (no complex even at high extract amounts) is recorded as “no binding”. In the case of “TGCACATGCAGGGGTGCACACC (double strand) [apoE -678]”, the binding result (competed by 50-fold excess unlabeled -678) is “binds”. Regarding “GCTCTGTAGGGGTAGCTCTTCC (double strand) [apoE -564]”, the binding result (competed by 50-fold excess unlabeled -564) is on record as “binds”.
